This assay has as its target TMEFF1 (transmembrane protein with EGF-like and two follistatin-like domains) (human (endogenous in CAOV3, OVCAR3, SKOV3)) (UniProt Q8IYR6). The experiment in a line: co-IP; total protein of ovarian cancer cells (CAOV3, OVCAR3, SKOV3); 2 µg anti-TMEFF1 or anti-ST14 antibody, 4 °C 4 h, protein A/G PLUS-Agarose overnight at 4 °C; western blot for the other protein; IgG of the same species as negative control; both directions.

Chains of the proteins cited; added tags and fusions are not shown. Residues count along the entry.
UniProt Q8IYR6, residues 40-380: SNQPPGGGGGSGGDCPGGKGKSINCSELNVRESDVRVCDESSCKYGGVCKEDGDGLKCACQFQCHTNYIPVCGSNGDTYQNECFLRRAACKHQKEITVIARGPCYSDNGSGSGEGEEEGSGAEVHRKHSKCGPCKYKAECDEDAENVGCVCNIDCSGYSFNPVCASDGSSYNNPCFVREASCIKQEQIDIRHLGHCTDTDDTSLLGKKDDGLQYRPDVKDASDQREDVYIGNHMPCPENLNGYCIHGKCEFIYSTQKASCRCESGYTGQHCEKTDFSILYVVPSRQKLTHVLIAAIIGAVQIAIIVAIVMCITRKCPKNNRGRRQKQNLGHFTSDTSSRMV
UniProt Q9Y5Y6: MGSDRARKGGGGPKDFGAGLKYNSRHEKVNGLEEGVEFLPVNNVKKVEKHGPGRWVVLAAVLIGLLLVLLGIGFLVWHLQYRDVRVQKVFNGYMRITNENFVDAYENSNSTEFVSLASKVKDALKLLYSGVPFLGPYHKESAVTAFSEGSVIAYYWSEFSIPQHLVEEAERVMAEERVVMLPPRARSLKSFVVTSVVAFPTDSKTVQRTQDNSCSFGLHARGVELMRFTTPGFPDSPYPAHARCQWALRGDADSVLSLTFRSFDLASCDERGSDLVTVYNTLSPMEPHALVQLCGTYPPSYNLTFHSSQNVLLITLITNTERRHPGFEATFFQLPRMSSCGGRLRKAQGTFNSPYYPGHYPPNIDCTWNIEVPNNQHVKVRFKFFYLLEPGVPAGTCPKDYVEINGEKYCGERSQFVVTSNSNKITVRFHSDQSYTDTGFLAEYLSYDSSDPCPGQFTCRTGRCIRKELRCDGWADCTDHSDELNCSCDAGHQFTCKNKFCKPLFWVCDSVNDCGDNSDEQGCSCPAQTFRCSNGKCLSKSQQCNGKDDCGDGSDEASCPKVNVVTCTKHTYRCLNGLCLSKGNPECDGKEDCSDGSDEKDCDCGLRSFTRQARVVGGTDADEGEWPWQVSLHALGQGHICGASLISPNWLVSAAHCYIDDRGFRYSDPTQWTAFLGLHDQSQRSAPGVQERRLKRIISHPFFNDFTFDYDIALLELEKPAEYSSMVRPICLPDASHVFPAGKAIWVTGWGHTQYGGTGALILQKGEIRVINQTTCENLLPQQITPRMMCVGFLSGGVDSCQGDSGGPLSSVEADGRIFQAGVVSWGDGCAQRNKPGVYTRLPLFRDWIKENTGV

These are yes or no findings as the source states them, for the method shown. In cells and extracts the contact can be indirect. Some entries that bind do so weakly or less than the wild type.

As to “ST14 (ST14 transmembrane serine protease matriptase) (from UniProt Q9Y5Y6 1-855)”, the binding result was “binds”.
